Experimental data: patent US11046889B2, “Polymerizable compound and optically anisotropic body” (DIC Corporation, priority 2015, dated 2021)

Assay: Adhesiveness of UV-cured coating film by cross cutting method (JIS K5600-5-6)
Details: coating film from 18.9% compound, 1% Irgacure 907, 0.1% 4-methoxyphenol, 80% chloroform; UV 40 mW/cm^2 for 25 seconds; 2 mm-square grid cross cut

| SMILES | Results of adhesiveness |
| --- | --- |
| C=CC(=O)OCCOCCOCCOc1ccc(OC(=O)C2CCC(C(=O)Oc3ccc(OC(=O)C4CCC(C(=O)Oc5ccc(OCCOCCOCCOC(=O)C=C)cc5)CC4)c4sc(-c5ccc([N+](=O)[O-])cc5)nc34)CC2)cc1 (centres unmarked) [Compound I-12] | Class 2 (the coating film is peeled along the cutting line at intersections (5% or more and less than 15%).) |
| C=CC(=O)OCCCCCCOc1ccc(OC(=O)C2CCC(C(=O)Oc3ccc(OC(=O)C4CCC(C(=O)Oc5ccc(OCCCCCCOC(=O)C=C)cc5)CC4)c4sc(-c5ccc([N+](=O)[O-])cc5)nc34)CC2)cc1 (centres unmarked) [Compound R-2, reference compound] | Class 4 (the coating film is largely peeled partially or entirely along the cutting line (35% or more and less than 65%).) |
| C=CC(=O)OCCCCOC(=O)C1CCC(C(=O)OC2CCC(C(=O)Oc3ccc(OC(=O)C4CCC(OC(=O)C5CCC(C(=O)OCCCCOC(=O)C=C)CC5)CC4)c4c3SC(=C(C#N)C(=O)OCCOCCOC(=O)C=C)S4)CC2)CC1 (centres unmarked) [Compound I-15] | Class 3 (the coating film is peeled partially or entirely along the cutting line (15% or more and less than 35%).) |
| C=CC(=O)OCCCCCCOc1ccc(OC(=O)C2CCC(C(=O)Oc3ccc(C4CCC(C5CCC(CCC)CC5)CC4)cc3/C=N/N(CCOCCOC)c3nc4ccccc4s3)CC2)cc1 (centres unmarked) [Compound I-17] | Class 2 (the coating film is peeled along the cutting line at intersections (5% or more and less than 15%).) |
| C=CC(=O)OCCCCCCOc1ccc(OC(=O)C2CCC(COc3ccc(-c4ccc(CCC)cc4)c(/C=N/N(CCOCCOC)c4nc5ccccc5s4)c3)CC2)cc1 (centres unmarked) [Compound I-11] | Class 2 (the coating film is peeled along the cutting line at intersections (5% or more and less than 15%).) |
| C=CC(=O)OCCCOc1ccc(OC(=O)C2CCC(COc3ccc(OCC4CCC(C(=O)Oc5ccc(OCCCOC(=O)C=C)cc5)CC4)c(/C=N/N(CCOCCOC)c4nc5ccccc5s4)c3)CC2)cc1 (centres unmarked) [Compound I-8] | Class 2 (the coating film is peeled along the cutting line at intersections (5% or more and less than 15%).) |
| C=CC(=O)OCCOCCOC(=O)C1CCC(C(=O)OC2CCC(C(=O)Oc3ccc(OC(=O)C4CCC(OC(=O)C5CCC(C(=O)OCCOCCOC(=O)C=C)CC5)CC4)c4c3SC(=C3C(=O)N(c5ccccc5)N=C3C(=O)OCC)S4)CC2)CC1 (centres unmarked) [Compound I-14] | Class 3 (the coating film is peeled partially or entirely along the cutting line (15% or more and less than 35%).) |
| C=CC(=O)OCCOCCOc1ccc(OC(=O)C2CCC(C(=O)Oc3ccc(OC(=O)C4CCC(C(=O)Oc5ccc(OCCOCCOC(=O)C=C)cc5)CC4)c4sc(-c5cc6c(C)cc(C)cc6o5)nc34)CC2)cc1 (centres unmarked) [Compound I-13] | Class 3 (the coating film is peeled partially or entirely along the cutting line (15% or more and less than 35%).) |
| C=C(C)C(=O)OCCCCCCOc1ccc(OC(=O)C2CCC(COc3ccc(OCC4CCC(C(=O)Oc5ccc(OCCCCCCOC(=O)C(=C)C)cc5)CC4)c(/C=N/N(CCOCCOC)c4nc5ccccc5s4)c3)CC2)cc1 (centres unmarked) [Compound I-16] | Class 2 (the coating film is peeled along the cutting line at intersections (5% or more and less than 15%).) |
| C=CC(=O)OCCCCCCOc1ccc(OC(=O)C2CCC(COc3ccc(OCC4CCC(C(=O)Oc5ccc(OCCCCCCOC(=O)C=C)cc5)CC4)c(/C=N/N(CCOCCOCCOC(=O)C=C)c4nc5ccccc5s4)c3)CC2)cc1 (centres unmarked) [Compound I-9] | Class 1 (a little peeling of the coating film is found at intersections of the cutting (less than 5%).) |
| C=CC(=O)OCCCCCCOc1ccc(OC(=O)C2CCC(C(=O)Oc3ccc(OC(=O)C4CCC(C(=O)Oc5ccc(OCCCCCCOC(=O)C=C)cc5)CC4)c(/C=N/N(COCCOC)c4nc5ccccc5s4)c3)CC2)cc1 (centres unmarked) [Compound R-1, reference compound] | Class 3 (the coating film is peeled partially or entirely along the cutting line (15% or more and less than 35%).) |
| C=CC(=O)OCCOCCOCCOc1ccc(OC(=O)C2CCC(C(=O)Oc3ccc(C4CCC(CCC)CC4)cc3/C=N/N(CCCCCC)c3nc4ccccc4s3)CC2)cc1 (centres unmarked) [Compound I-3] | Class 2 (the coating film is peeled along the cutting line at intersections (5% or more and less than 15%).) |
| C=CC(=O)OCCCOC(=O)C1CCC(C(=O)OC2CCC(C(=O)Oc3ccc(OC(=O)C4CCC(OC(=O)C5CCC(C(=O)OCCCOC(=O)C=C)CC5)CC4)c4c3SC(=C3C(=O)N(c5ccccc5)N=C3C(=O)OCC)S4)CC2)CC1 (centres unmarked) [Compound R-3, reference compound] | Class 4 (the coating film is largely peeled partially or entirely along the cutting line (35% or more and less than 65%).) |
| C=CC(=O)OCCOCCOCCOc1ccc(C(=O)Oc2ccc(-c3ccc(CCC)cc3)cc2/C=N/Nc2nc3ccccc3s2)cc1 [Compound I-1] | Class 2 (the coating film is peeled along the cutting line at intersections (5% or more and less than 15%).) |
| C=CC(=O)OCCOCCOCCOc1ccc(OC(=O)C2CCC(C(=O)Oc3ccc(C4CCC(C5CCC(CCC)CC5)CC4)cc3/C=N/N(CCCCCC)c3nc4ccccc4s3)CC2)cc1 (centres unmarked) [Compound I-4] | Class 2 (the coating film is peeled along the cutting line at intersections (5% or more and less than 15%).) |
| C=CC(=O)OCCOCCOCCOc1ccc(OC(=O)C2CCC(COc3ccc(OCC4CCC(C(=O)Oc5ccc(OCCOCCOCCOC(=O)C=C)cc5)CC4)c(/C=N/N(CCCCCC)c4nc5ccccc5s4)c3)CC2)cc1 (centres unmarked) [Compound I-5] | Class 2 (the coating film is peeled along the cutting line at intersections (5% or more and less than 15%).) |
| C=CC(=O)OCCCCCCOc1ccc(OC(=O)C2CCC(COc3ccc(C4CCC(CCC)CC4)cc3/C=N/N(CCOCCOC)c3nc4ccccc4s3)CC2)cc1 (centres unmarked) [Compound I-10] | Class 2 (the coating film is peeled along the cutting line at intersections (5% or more and less than 15%).) |
| C=CC(=O)OCCCCCCOc1ccc(OC(=O)C2CCC(C(=O)Oc3ccc(C4CCC(CCC)CC4)cc3/C=N/N(CCOCCOC)c3nc4ccccc4s3)CC2)cc1 (centres unmarked) [Compound I-7] | Class 2 (the coating film is peeled along the cutting line at intersections (5% or more and less than 15%).) |
| C=CC(=O)OCCCCCCOc1ccc(OC(=O)C2CCC(COc3ccc(OCC4CCC(C(=O)Oc5ccc(OCCCCCCOC(=O)C=C)cc5)CC4)c(/C=N/N(CCOCCOC)c4nc5ccccc5s4)c3)CC2)cc1 (centres unmarked) [Compound I-6] | Class 2 (the coating film is peeled along the cutting line at intersections (5% or more and less than 15%).) |
| C=CC(=O)OCCOCCOCCOc1ccc(OC(=O)C2CCC(C(=O)Oc3ccc(C4CCC(CCC)CC4)cc3/C=N/Nc3nc4ccccc4s3)CC2)cc1 (centres unmarked) [Compound I-2] | Class 2 (the coating film is peeled along the cutting line at intersections (5% or more and less than 15%).) |
